Measurements reported in PMC7948453.

The chains behind the UniProt entries cited, without tags or fusion partners.
UniProt P62869: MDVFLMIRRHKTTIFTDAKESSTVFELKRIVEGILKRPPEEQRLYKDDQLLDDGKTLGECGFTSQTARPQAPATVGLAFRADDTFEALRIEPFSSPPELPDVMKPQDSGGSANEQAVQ
UniProt P40201: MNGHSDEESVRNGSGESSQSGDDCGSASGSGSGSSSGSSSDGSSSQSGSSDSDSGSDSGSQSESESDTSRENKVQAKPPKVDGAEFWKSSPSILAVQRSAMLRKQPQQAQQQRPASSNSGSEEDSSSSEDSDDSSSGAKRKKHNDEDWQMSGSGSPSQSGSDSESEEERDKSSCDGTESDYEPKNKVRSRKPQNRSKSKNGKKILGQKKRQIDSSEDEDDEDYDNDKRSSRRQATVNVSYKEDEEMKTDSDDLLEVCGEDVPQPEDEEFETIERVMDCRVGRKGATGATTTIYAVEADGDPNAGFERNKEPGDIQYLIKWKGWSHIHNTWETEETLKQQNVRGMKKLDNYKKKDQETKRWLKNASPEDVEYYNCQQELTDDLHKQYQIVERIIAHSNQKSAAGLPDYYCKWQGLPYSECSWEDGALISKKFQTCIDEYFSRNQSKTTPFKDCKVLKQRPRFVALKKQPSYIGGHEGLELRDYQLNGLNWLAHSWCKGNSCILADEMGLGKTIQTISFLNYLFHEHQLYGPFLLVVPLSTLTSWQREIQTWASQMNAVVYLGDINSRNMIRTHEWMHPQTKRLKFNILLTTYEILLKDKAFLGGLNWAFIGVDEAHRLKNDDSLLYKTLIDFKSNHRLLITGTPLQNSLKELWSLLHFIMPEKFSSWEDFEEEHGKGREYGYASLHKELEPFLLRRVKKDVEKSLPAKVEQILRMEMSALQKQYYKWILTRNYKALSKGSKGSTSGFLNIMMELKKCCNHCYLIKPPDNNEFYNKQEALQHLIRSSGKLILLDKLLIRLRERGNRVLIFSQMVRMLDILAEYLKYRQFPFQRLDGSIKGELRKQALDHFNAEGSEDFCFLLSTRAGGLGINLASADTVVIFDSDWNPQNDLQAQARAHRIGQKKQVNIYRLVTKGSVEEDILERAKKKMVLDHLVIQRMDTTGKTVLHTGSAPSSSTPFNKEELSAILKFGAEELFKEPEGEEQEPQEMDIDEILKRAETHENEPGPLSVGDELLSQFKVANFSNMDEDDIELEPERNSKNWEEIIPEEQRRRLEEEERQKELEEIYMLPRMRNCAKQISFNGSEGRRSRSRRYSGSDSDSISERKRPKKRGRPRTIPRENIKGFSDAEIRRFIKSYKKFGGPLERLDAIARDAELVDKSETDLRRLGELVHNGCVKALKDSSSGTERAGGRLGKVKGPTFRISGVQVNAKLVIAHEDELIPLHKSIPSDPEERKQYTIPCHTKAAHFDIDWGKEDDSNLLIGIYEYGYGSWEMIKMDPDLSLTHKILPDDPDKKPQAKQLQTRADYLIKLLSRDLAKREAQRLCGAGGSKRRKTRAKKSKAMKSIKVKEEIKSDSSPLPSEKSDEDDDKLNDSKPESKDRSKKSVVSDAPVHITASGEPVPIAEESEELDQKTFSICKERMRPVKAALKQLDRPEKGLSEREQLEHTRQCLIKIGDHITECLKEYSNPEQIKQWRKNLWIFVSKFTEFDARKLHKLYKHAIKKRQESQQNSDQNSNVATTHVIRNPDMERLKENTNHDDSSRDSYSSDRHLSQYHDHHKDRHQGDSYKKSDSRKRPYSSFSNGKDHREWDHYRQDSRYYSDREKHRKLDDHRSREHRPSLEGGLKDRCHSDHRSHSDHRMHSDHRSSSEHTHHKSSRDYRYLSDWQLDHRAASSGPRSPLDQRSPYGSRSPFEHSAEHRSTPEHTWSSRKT
UniProt Q9QZH3: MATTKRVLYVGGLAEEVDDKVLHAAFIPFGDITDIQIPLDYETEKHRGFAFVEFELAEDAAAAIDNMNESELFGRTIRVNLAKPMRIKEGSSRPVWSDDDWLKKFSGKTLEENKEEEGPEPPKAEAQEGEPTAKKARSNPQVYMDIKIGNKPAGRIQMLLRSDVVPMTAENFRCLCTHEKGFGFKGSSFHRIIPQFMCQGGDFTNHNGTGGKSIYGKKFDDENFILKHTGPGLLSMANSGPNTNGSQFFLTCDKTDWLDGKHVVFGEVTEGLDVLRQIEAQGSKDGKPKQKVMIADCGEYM

Biological target: T1, Elongin A (mouse (endogenous in mESC)) (UniProt Q8CB77)
T1 sequence: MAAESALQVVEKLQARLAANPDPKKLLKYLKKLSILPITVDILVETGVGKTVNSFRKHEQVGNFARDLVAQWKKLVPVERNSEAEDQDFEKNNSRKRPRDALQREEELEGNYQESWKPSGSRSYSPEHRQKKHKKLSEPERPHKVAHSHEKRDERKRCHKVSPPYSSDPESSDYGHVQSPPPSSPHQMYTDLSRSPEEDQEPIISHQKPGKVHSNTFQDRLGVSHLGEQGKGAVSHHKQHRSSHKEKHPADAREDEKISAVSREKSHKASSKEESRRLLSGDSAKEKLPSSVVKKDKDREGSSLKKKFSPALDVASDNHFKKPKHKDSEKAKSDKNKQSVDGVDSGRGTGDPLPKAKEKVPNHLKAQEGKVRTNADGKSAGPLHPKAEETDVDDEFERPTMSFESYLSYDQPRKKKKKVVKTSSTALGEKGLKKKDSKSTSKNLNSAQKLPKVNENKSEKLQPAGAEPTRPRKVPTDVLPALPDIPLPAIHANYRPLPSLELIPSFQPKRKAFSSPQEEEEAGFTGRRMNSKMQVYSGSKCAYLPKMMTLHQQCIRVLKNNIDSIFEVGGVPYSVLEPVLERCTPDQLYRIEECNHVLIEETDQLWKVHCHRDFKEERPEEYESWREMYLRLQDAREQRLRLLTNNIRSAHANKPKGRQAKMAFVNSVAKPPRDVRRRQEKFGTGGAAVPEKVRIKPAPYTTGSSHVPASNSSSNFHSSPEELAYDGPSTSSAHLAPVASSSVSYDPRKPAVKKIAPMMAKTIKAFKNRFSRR
Assay: affinity purification with mass spectrometry; IP of endogenous EloA with goat anti-EloA (SCBT, R-19) on magnetic protein G from MEF-depleted mESC nuclear extract (no solubilized chromatin fraction), 300 mM KCl, 0.05% NP-40, 3 h at 4 °C; control IP from EloA null mESC

Molecule: Elongin B (from UniProt P62869 1-118)
binding: binds

B1: Xeroderma pigmentosum group A (XPA)-binding protein 2 (protein, UniProt Q9DCD2 1-855)
chain: MVVMARVPRSERPDLVFEEEDLPYEEEIMRNQFSVKCWLRYIEFKQGAPKPRLNQLYERALKLLPCSYKLWYRYLKARRAQVKHRCVTDPAYEDVNNCHERAFVFMHKMPRLWLDYCQFLMDQGRVTHTRRTFDRALRALPITQHSRIWPLYLRFLRSHPLPETAVRGYRRFLKLSPESAEEYIEYLKSSDRLDEAAQRLATVVNDERFVSKAGKSNYQLWHELCDLISQNPDKVQSLNVDAIIRGGLTRFTDQLGKLWCSLADYYIRSGHFEKARDVYEEAIRTVMTVRDFTQVFDSYAQFEESMIAAKMETASELGREEEDDVDLELRLARFEQLISRRPLLLNSVLLRQNPHHVHEWHKRVALHQGRPREIINTYTEAVQTVDPFKATGKPHTLWVAFAKFYEDNGQLDDARVILEKATKVNFKQVDDLASVWCQCGELELRHENYDEALKLLRKATALPARRAEYFDGSEPVQNRVYKSLKVWSMLADLEESLGTFQSTKAVYDRILDLRIATPQIVINYAMFLEEHKYFEESFKAYERGISLFKWPNVSDIWSTYLTKFISRYGGRKLERARDLFEQALDGCPPKYAKTLYLLYAQLEEEWGLARHAMAVYDRATRAVEPAQQYDMFNIYIKRAAEIYGVTHTRGIYQKAIEVLSDEHAREMCLRFADMECKLGEIDRARAIYSFCSQICDPRTTGAFWQTWKDFEVRHGNEDTIREMLRIRRSVQATYNTQVNFMASQMLKVSGSATGTVSDLAPGQSGMDDMKLLEQRAEQLAAEAERDQPPRAQSKIFFVRSDASREELAELAQQANPEEIQLGEDEDEDEMDLEPNEVRLEQQSVPAAVFGSLKED
binding: binds

B4: Ddx51 (protein, UniProt Q6P9R1 1-639)
chain: MALFHIARYAGPEAAGQGDTDAEAGSRARVLLERLQNRARERQQREPELETTGTAGEGEAAAAGKRRRRPRRRRRVSGSATPNSEAPRAKRRKADKDVDAGRGEEAPEELSAGAEDPGANPQEDVQRPPAPGRVLGDFARRKTPKVQPFLPAWLAKPSCVKKSVTEDLTPIEDIPEVHPDLQKQLRANGITSYFPVQAAVIPALLESADHGFLIGRGGYQPSDLCVSAPTGSGKTLAFVIPVVQALLHRVVCHIRALVVLPTKELAQQVSKVFNIYTDTTPLRVALVTGQKSLAKEQESLVQKTADGFRCLADIVVATPGRLVDHIDQTPGFSLQQLRFLIIDEADRMIDSMHQSWLPRVVAAAFYSEGPTGSCALLQRTQPQALTAASTCVPQMPLQKLLFSATLTQDPEKLQRLGLYQPRLFSTRLGQQSPKDTAEVDENSGKYTFPVGLTHHYVPCRLSSKPLIVLHLVLRMSCSRALCFTNSRENSHRLYLLAQAFGGVSVAEFSSRYGPGQRKKILKQFEQGKIQLLISTDATARGIDVQGVELVINYDAPQYLRTYVHRVGRTARAGKTGQAFTLLLKVQERKFLQMVSEAGVPELTHHEIPRKLLQPLVARYETALSQLEKTVKEEQKLKAA
binding: binds

Now from value to molecule:

binding: binds
Molecule: chromatin remodeling factor CHD1 (from UniProt P40201 1-1711)

binding: binds
Molecule: PPIE (from UniProt Q9QZH3 1-301)

binding: binds
B2: putative RNA exonuclease Rexo1 (protein, UniProt Q7TT28 1-1213)
chain: MLRSTGFFRSIDCPYWAGAPGGPCRRPYCHFRHRGARGPGAPGSGGAASPASGLGYDPYNPELPQPPVQRENGALGQGDGMLELELVNQAIEAVRGEVELEQRRYQELLETARGHSAGPSALAPCSPATSIDDDDTFSLALTYTPGGLLSPDAAYQPTPLAVPAEPGHKYSLAPSDRSQGRAAGGAGALEYVPKAVGQPRRCGRPVSGGKYVVDSSKPSTDLEYDPLSNYSARHLGRASARDERATKRPRGSRGAEPYTPALKKPCDPFGGCEARFSDSEDDVTSPPKADVSSPKAGADPESKAPGKPVSKEGREHEDGGLRGTKEMAVQYDVEDLGQPPKAPDTVSVVKPGSPARASQDARVPKEGKAKKKKSGTSASLSHKDKVRKKDKKKEKDPARPRGKEKVCTDKKKLPASNPRGKAQGPEGTKKKPSSATTVASSGKGGSGRPSSTGPQDSGPGPHAPLAWKAGSAKKMSSGKLVERKARSLDEGAPQDTPKLKKRALSHAELFGDESEEEDSSLGAGAPRVWPPTLPSLSSDSESDSDSSLGLDETKVPKRLKAAPPASPVPPSPLSSSSSSSGASQCAEEDVDYSALEKEVDFDVDPMEECLRIFNESTSVKTEDKGRLARQPPKEKAEEKTHAGLTTLFPGQKRRVSHLCKPGKESEAPKRTPVAPPARPPTAQEVCYRRAQLAQRDSASWLQAAPRPTERLSSVHISAPGEKRRIAHVPNPRLAAAPTGAKRALSASSSQASHGPEPGSQPLKTRTLSGMASKTTTTVTPKRIAHSPSLQSLKKPVIPKEFGGKVPTVVRQRYLNLFIEECLKFCSSNQEAIEKALNEEKVAYDRSPSKNIYLNVAVNTLKKLRGLVPNTVPNLSKASGRRVVSHEVVLGGKLAAKTSFSLSRPSSPRVEELKGTALYSRLREYLLTQEQLKENGYPFPHPERPGGAIIFTAEEKKPKDPSCRICCRCGTEYLVSSSGRCVRSEECYYHWGRLRRNRVAGGWETQYMCCSAAVGSVGCQVAKQHVQDGRKENLEGFVRTFQKELPEDAHAGVFALDCEMSYTTYGLELTRVTVVDTDMQVVYDTFVKPDNEVVDYNTRFSGVTEADLVDTSITLRDVQAVLLSMFSADTILIGHSLESDLLALKVIHGTVVDTSVLFPHRLGLPYKRSLRNLMADYLRQIIQDNVDGHSSSEDASACMHLVIWKIREDAKTKR

binding: binds
B3: ISY1 (protein, UniProt Q69ZQ2 1-285)
chain: MARNAEKAMTALARFRQAQLEEGKVKERRPFLASECTELPKAEKWRRQIIGEISKKVAQIQNAGLGEFRIRDLNDEINKLLREKGHWEVRIKELGGPDYGKVGPKMLDHEGKEVPGNRGYKYFGAAKDLPGVRELFEKEPLPPPRKTRAELMKAIDFEYYGYLDEDDGVIVPLEQEYEKKLRAELVEKWKAEREARLARGEKEEEEEEEEEINIYAVTEEESDEEGNQEKAGEDGQQKFIAHVPVPSQQEIEEALVRRKKMELLQKYASETLQAQSEEAKRLLGY

These are yes or no findings as the source states them, for the method shown. Binding seen in cells or lysates may run through a third protein. These calls come from enrichment with a bait or labelling near it, and not all partners need be listed. One block for each molecule: values may come before it.
